Measurements published in paper PMC6051672.
These are yes or no findings as the source states them, for the method shown. Some binding calls cover weakened binding; strength is not graded here.

T1: T18-YneA (Bacillus subtilis) (UniProt Q45056)
T1 sequence: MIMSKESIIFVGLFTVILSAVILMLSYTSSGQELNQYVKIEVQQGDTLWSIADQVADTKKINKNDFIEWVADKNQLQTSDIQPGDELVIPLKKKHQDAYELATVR

B1: T25-YlbL-S234A (enzyme, UniProt O34470 1-341)
chain: MLRKKHFSWMLVILILIAVLSFIKLPYYITKPGEATELASLIKVEGGYPEKGSLSLMTVKVGPANPFTYVWAKMHPYYEIVPDESIKEEGESDKEYMKRQLQMMKSSQENAVIAAYQKAGKKVSYSFNGIYASSVVENMPAKGKIEVGDKIISADGKNYQSAEKLIDYISSKKAGDKVTLKIEREEKEKRVTLTLKQFPDEPDRAGIGVSLYTDRNVKVEPDIDFEIENIGGPAAGLMMSLEIYNQLTKPDETKGYDIAGTGTIDVDGKVGPIGGIDQKVVAADKAGKDIFFAPNQNGASNSDYKNAVKTAKDIDSNMKIVPVDTMQDAIDYLNKLKAKST
B2: T25-CtpA-S297A (enzyme, UniProt O34666 1-466)
chain: MKRQLKLFFIVLITAVVASALTLFITGNSSILGQKSASTGDSKFDKLNKAYEQIKSDYYQKTDDDKLVDGAIKGMIQSLDDPYSTYMDQEQAKSFDETISASFEGIGAQVEEKDGEILIVSPIKGSPAEKAGIKPRDQIIKVNGKSVKGMNVNEAVALIRGKKGTKVKLELNRAGVGNIDLSIKRDTIPVETVYSEMKDNNIGEIQITSFSETTAKELTDAIDSLEKKGAKGYILDLRGNPGGLMEQAITMSNLFIDKGKNIMQVEYKNGSKEVMKAEKERKVTKPTVVLVNDGTAAAAEIMAAALHESSNVPLIGETTFGKGTVQTAKEYDDGSTVKLTVAKWLTADGEWIHKKGIKPQVKAELPDYAKLPYLDADKTYKSGDTGTNVKVAQKMLKALGYKVKVNSMYDQDFVSVVKQFQKKEKLNETGILTGDTTTKLMIELQKKLSDNDTQMEKAIETLKKEM

Biological target: T1, T18-YneA (Bacillus subtilis)
Experiment: two-hybrid; bacterial two-hybrid, T18 and T25 fusion plasmids co-transformed into E. coli BTH101; spotted on LB agar with ampicillin, kanamycin, 0.5 mM IPTG and 40 ug/mL X-gal; 30°C for 48 hours, then room temperature for 24 hours

| Binder | binding |
| --- | --- |
| B1 | binds |
| B2 | binds |
